Data taken from PubChem BioAssay AID2517 (National Center for Advancing Translational Sciences (NCATS), 2010).
In all, about 350,000 compounds went through this assay and about 1,200 (0.34%) were called active. Inconclusive means that the source gave no clear call. Such entries were picked first, then a sample of the others. Calls follow the shape of the dose curve; as a rule, active = well fitted inhibition curve with a large enough effect; inconclusive = small, poorly fitted or top-dose-only effect; inactive = no such curve, though single readings can be large or run the other way. A potency beside an inconclusive call is a rough fit, not a confirmed value.
Also: nearly all actives have a fitted effect of over 55% in size.
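For activity change, negative = inhibition in this document: plate controls were vehicle for no effect and reference inhibitor for full effect.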
Potency is read from the fitted curve at half-maximal effect.

Protein sequences, listed by entry. Tags and fused reporters are not part of them.
UniProt P27695, whole entry, looked up: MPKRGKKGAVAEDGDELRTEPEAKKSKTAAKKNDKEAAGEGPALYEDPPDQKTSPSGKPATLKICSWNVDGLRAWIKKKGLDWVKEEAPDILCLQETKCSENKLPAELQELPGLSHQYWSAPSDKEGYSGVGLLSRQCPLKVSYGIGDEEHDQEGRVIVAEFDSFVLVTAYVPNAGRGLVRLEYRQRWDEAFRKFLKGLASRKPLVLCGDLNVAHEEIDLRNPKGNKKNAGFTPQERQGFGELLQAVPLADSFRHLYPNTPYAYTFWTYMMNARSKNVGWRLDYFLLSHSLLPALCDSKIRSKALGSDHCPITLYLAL

The compounds below were run against DNA repair nuclease/redox regulator APEX1 (Homo sapiens) (UniProt P27695) (assay: qHTS Assay for Inhibitors of the Human Apurinic/apyrimidinic Endonuclease 1 (APE1)). Details: recombinant APE1, TAMRA/BHQ-2 abasic DNA cleavage fluorescence; activity change, negative = inhibition: at 65.8 µM (top of the series).
In short: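 Incision of a quenched TAMRA/BHQ-2 THF abasic-site duplex (50 nM) by 0.75 nM APE1, after 15 min compound preincubation, measured as fluorescence increase over three 60 s reads. Values normalized to buffer, DMSO and NSC13755 control wells.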
CCOc1c2ccoc2nc2c(OC)c(OC)ccc12 was tested, and the Potency was inconclusive: 7.94 µM [inhibitor, single point]. C=CCNS(=O)(=O)c1cccc(C(C)=O)c1 was tested, and the Potency was inconclusive: 35.5 µM [inhibitor, single point]. O=C(Nc1ccc(-c2nc3ccccc3s2)c(O)c1)C1=COCCO1 was tested, and the Potency was inconclusive: 3.16 µM [inhibitor, single point]. In the case of COc1cccc(C2=Nn3c(nnc3-c3cccc(OC)c3OC)SC2)c1, the “activity change, negative = inhibition” value is reported as inactive: -1.36%. With CS[C@@H]1SC[C@H]2C(=O)N(C)C(C(C)C)C(=O)OC[C@@H](NC(=O)c3cnc4ccccc4n3)C(=O)N[C@@H](C)C(=O)N(C)[C@H]1C(=O)N(C)C(C(C)C)C(=O)OC[C@@H](NC(=O)c1cnc3ccccc3n1)C(=O)N[C@@H](C)C(=O)N2C (some centres undefined) the Potency was inconclusive: 28.2 µM [inhibitor, partial curve]. With COc1ccc(C(=O)NC(=O)Nc2ncccc2C)cc1 the Potency was inconclusive: 0.631 µM [inhibitor, full curve]. CCOc1ccc(NC(=S)N(CCc2ccncc2)C(C)C)cc1 was tested, and the Potency was inconclusive: 35.5 µM [inhibitor, single point]. For O=C(CSc1nnc(-c2cccs2)n1Cc1ccco1)Nc1ccc2c(c1)OCO2, the Potency was inconclusive: 39.8 µM [inhibitor, single point]. For CCC1(C)Cc2c(sc3[nH]c(=S)n(Cc4ccccc4)c(=O)c23)CO1 (centres undefined), the Potency was inconclusive: 5.01 µM [inhibitor, single point]. For CCN(CC)S(=O)(=O)c1ccc(N2CCOCC2)c(NC(=O)c2ccc3ccccc3c2)c1, the “activity change, negative = inhibition” value was inactive: -3.59%. COC(=O)c1ccccc1-c1ccc(C(c2c(C)[nH][nH]c2=O)c2c(C)[nH][nH]c2=O)o1 was tested, and the “activity change, negative = inhibition” value was inactive: 2.23%. With CCOc1ccc(S(=O)(=O)N2CCN(C(=O)c3ccc(C)c(S(=O)(=O)N4CCOCC4)c3)CC2)cc1 the “activity change, negative = inhibition” value was inactive: -19.1%. With C/C(CCc1ccc2c(c1)OCO2)=N\NC(=O)c1ccccc1 the “activity change, negative = inhibition” value was inactive: -2.36%. In the case of CCOC(=O)CCN1C(=O)[C@H]2[C@H]3[C@H](O)[C@H](O)C/C(=N/O[C@@H]4O[C@@H](COC(C)=O)[C@@H](OC(C)=O)[C@@H](OC(C)=O)[C@H]4OC(C)=O)[C@H]3CC[C@@H]2C1=O, the Potency is reported as inconclusive: 10 µM [inhibitor, single point]. In the case of CN(c1ccccc1)S(=O)(=O)c1ccc(Cl)c(C(=O)OCC(=O)NCc2ccco2)c1, the Potency is reported as inconclusive: 25.1 µM [inhibitor, single point]. In the case of Cc1cc(C)c2nc(-c3ccccn3)cc(C(=O)NCCc3ccc(S(N)(=O)=O)cc3)c2c1, the Potency is reported as inconclusive: 39.8 µM [inhibitor, single point]. With COc1cccc2nc3cc(C)c(C)cc3nc12 the Potency was inconclusive: 29.9 µM [inhibitor, partial curve, poor fit]. With CC1(C)C(=O)Nc2ccccc2N1C(=O)COC(=O)c1cc(S(=O)(=O)N2CCOCC2)ccc1F the Potency was inconclusive: 22.4 µM [inhibitor, single point]. For Cc1nc(SCC(=O)NC2CCCC2)[nH]c(=O)c1Cc1ccccc1, the Potency was inconclusive: 39.8 µM [inhibitor, single point]. For Cc1cc(C)c(S(=O)(=O)Nc2ccc(O)cc2)cc1C, the “activity change, negative = inhibition” value was inactive: -5.03%. CC(=O)OCC(=O)[C@@]1(O)CC[C@H]2[C@@H]3CCC4=CC(=O)CC[C@]4(C)[C@H]3[C@@H](O)C[C@@]21C was tested, and the Potency was inconclusive: 44.7 µM [inhibitor, partial curve, poor fit]. In the case of CCOc1cccc(OCCOc2ccc(C(=O)c3ccccc3)cc2)c1, the Potency is reported as inconclusive: 39.8 µM [inhibitor, partial curve, poor fit]. For O=C1N[C@@H](Cc2c[nH]c3ccccc23)COC(=O)[C@@H](Cc2ccc(F)cc2)CC/C=C/C[C@@H]1CC(=O)N(CCO)Cc1ccccc1, the Potency was inconclusive: 10.6 µM [inhibitor, partial curve]. For O=C(Nc1nc2c(F)cc(F)cc2s1)c1ccc2c(c1)OCCO2, the “activity change, negative = inhibition” value was inactive: 4.35%. For CC1CCc2c(sc(NC(=O)c3ccc(Cn4cc([N+](=O)[O-])cn4)o3)c2C#N)C1 (centres undefined), the Potency was inconclusive: 25.1 µM [inhibitor, single point]. In the case of Nc1ccc(-c2nc3ccc(C(=O)O)cc3s2)cc1, the Potency is reported as inconclusive: 35.5 µM [inhibitor, single point]. CCc1cc(C(=O)NNC(=S)Nc2ccccc2C)cs1 was tested, and the Potency was inconclusive: 8.91 µM [inhibitor, single point]. For O=C(O)CNS(=O)(=O)c1ccc2c3c(cccc13)C(=O)N2, the Potency was inconclusive: 15 µM [inhibitor, partial curve]. With O=C1/C(=C\c2c(NCCOCCO)nc3ccccn3c2=O)SC(=S)N1Cc1ccco1 the Potency was inconclusive: 18.9 µM [inhibitor, single point]. Cc1ccc(C)c(N2CCN(S(=O)(=O)c3ccc4c(c3)C(C)(C)C(=O)N4C)CC2)c1 was tested, and the “activity change, negative = inhibition” value was inactive: -12.9%. Cc1ccc(C2(C(F)(F)F)NC(=O)N3C(=C2C#N)Nc2ccccc23)cc1 (centres undefined) was tested, and the Potency was inconclusive: 28.2 µM [inhibitor, single point]. With CCNc1nc(NC(C)C)nc(Oc2ccc(/C=N/O)cc2)n1 the Potency was inconclusive: 39.8 µM [inhibitor, single point]. Brc1ccc(-c2csc(N3CCCCC3)n2)cc1 was tested, and the “activity change, negative = inhibition” value was inactive: 11.6%. For N#Cc1ccc(NC(=O)Cn2c3[n+](c4ccc(C(F)(F)F)cc42)CCCCC3)cc1, the “activity change, negative = inhibition” value was inactive: 24.1%. COc1ccc(/C=N/NC(=O)CCn2cnc(-c3ccccc3)c2-c2ccccc2)cc1OC was tested, and the Potency was inconclusive: 0.631 µM [inhibitor, full curve]. In the case of CCN(CCNC(=O)c1ccc2nc(-c3ccccc3NC(C)=O)c(=O)[nH]c2c1)c1ccccc1, the Potency is reported as inconclusive: 1 µM [inhibitor, full curve]. With COc1ccccc1-c1nc(C#N)c(N2CCC(Cc3ccccc3)CC2)o1 the Potency was inconclusive: 0.631 µM [inhibitor, full curve, poor fit]. CN1/C(=C\P(=O)(N(C)C)N(C)C)C(C)(C)c2ccccc21 was tested, and the “activity change, negative = inhibition” value was inactive: -5%. In the case of CSc1ccc(S(=O)(=O)NCC(=O)OC2CCOC2=O)cc1[N+](=O)[O-] (centres undefined), the “activity change, negative = inhibition” value is reported as inactive: -34.6%. In the case of CCCc1ccc(OCC(O)CN2CCc3ccccc3C2)cc1 (centres undefined), the Potency is reported as inconclusive: 8.44 µM [inhibitor, single point]. In the case of COC(=O)C(CC(=O)c1ccc(Br)cc1)n1ccnc1 (centres undefined), the “activity change, negative = inhibition” value is reported as inactive: 1.79%. For CN(C)c1ccc(C(c2ccc(N(C)C)cc2)c2ccc([N+](=O)[O-])cc2)cc1, the “activity change, negative = inhibition” value was inactive: -5.71%. NC(=O)C(CC(=O)O)NC(=O)[C@@H]1CCCNc2c(I)cc([N+](=O)[O-])cc2C(=O)N[C@@H](CO)C(=O)N[C@@H](Cc2ccc(O)cc2)C(=O)N1 (some centres undefined) was tested, and the Potency was inconclusive: 3.16 µM [inhibitor, full curve]. For COC(=O)Cn1c(=O)c2c(nc3n2CC(C)CN3c2ccc(C)c(C)c2)n(C)c1=O (centres undefined), the Potency was inconclusive: 0.0708 µM [inhibitor, full curve]. With Cc1ccc(N)cc1S(=O)(=O)N(C)C the “activity change, negative = inhibition” value was inactive: 2.64%. For O=C(CSc1n[nH]c(=O)[nH]c1=O)N/N=C/c1ccccc1O, the “activity change, negative = inhibition” value was inactive: 6.75%. For COC(=O)C1CSc2[nH]c(=O)sc2C1c1ccc(O)c(OC)c1 (centres undefined), the Potency was inconclusive: 8.91 µM [inhibitor, single point]. CCCS(=O)(=O)c1nc(S(=O)(=O)c2ccc(C)cc2)c(NCc2ccccn2)s1 was tested, and the Potency was inconclusive: 25.1 µM [inhibitor, single point]. For O=C(O)C1CC(O)CN1S(=O)(=O)c1cccs1 (centres undefined), the Potency was inconclusive: 7.94 µM [inhibitor, full curve]. In the case of O=C(NNC(=S)Nc1cccc(C(F)(F)F)c1)c1ccccc1Cl, the Potency is reported as inconclusive: 0.501 µM [inhibitor, full curve]. With CCOc1cccc(=O)c2c(C)n(C)c(C)c12 the Potency was inconclusive: 20 µM [inhibitor, single point]. In the case of C=CCn1c(-c2ccc(Cl)cc2)cnc1SC(C)C(N)=O (centres undefined), the Potency is reported as inconclusive: 44.7 µM [inhibitor, single point]. With CCc1c(C)sc(NC(=O)c2cccs2)c1C#N the Potency was inconclusive: 12.6 µM [inhibitor, single point]. With COc1ccccc1N1C(=O)CSC1=NC(=O)c1ccccc1 the Potency was inconclusive: 0.355 µM [inhibitor, full curve, poor fit]. In the case of Cc1cccc(NC(=O)NC(C)C(c2cccs2)N2CCOCC2)c1 (centres undefined), the Potency is reported as inconclusive: 0.0398 µM [inhibitor, full curve, poor fit]. With O=C(O)c1ccccc1C1Nc2ccccc2C(=O)N1CCCN1CCOCC1 (centres undefined) the Potency was inconclusive: 10 µM [inhibitor, single point]. For CC/C(=C/c1sc2ccc(C)cc2[n+]1CCO)SC, the “activity change, negative = inhibition” value was inactive: 16.1%. In the case of O=C(O)C1CCNCC1, the Potency is reported as inconclusive: 10 µM [inhibitor, partial curve]. With CCN(CC)C(=O)CC(c1ccc(OC)cc1)c1c(OC)cc(OC)c2c(-c3ccccc3)cc(=O)oc12 (centres undefined) the Potency was inconclusive: 25.1 µM [inhibitor, single point]. For O=C=Nc1ccc(Cc2ccc(N=C=O)cc2)cc1, the “activity change, negative = inhibition” value was inactive: 2.57%. For O=C(CSc1nnc(CN2CCOCC2)n1-c1ccccc1)N1CCc2ccccc21, the Potency was inconclusive: 70.8 µM [inhibitor, partial curve, poor fit]. For COc1ccccc1CCNC(=O)CCSc1nc(-c2ccco2)cc(C(F)(F)F)n1, the Potency was inconclusive: 39.8 µM [inhibitor, single point]. C/C(=N/Nc1ccc(C(=O)O)cc1)c1ccc(O)c(O)c1O was tested, and the Potency was inconclusive: 22.4 µM [inhibitor, partial curve, poor fit]. O=C(Nc1cnn(Cc2ccc(Cl)c(Cl)c2)c1)C12CC3CC(CC(C3)C1)C2 was tested, and the Potency was inconclusive: 44.7 µM [inhibitor, single point].
